# For at least one compound, name, drawing or mass did not settle the structure.
# Key:
# [1] = Treatment of PVCs in a patient with lithium carbonate in combination with metoprolol (cardiac event monitor / EKG); type: in vivo, human
# Excerpt: Trial 1 was started on Aug. 23, 2019 and stopped on Jan. 1, 2020; Trial 2 was started on Jan. 12, 2020 and stopped on Apr. 21, 2020; and Trial 3 was started on May 8, 2020 and was ongoing at the time the instant application was filed.
# The first trial was 109 days. The second trial was 43 days.
# [2] = Planned treatment of PVCs with extended release lithium in combination with metoprolol (Example 2); type: in vivo, human; settings: patient, lithium 300 mg per day
structure (smiles),measurement,setting,value
[Li] [lithium],"number of PVCs reduced, of the pre-lithium number of PVCs","[1]; each of three trials of lithium 150 mg twice daily, within 12 days of starting the lithium",95%
same,number of PVCs,"[1]; each of three trials of lithium 150 mg twice daily, within 22 days of starting the lithium, maintained until lithium was discontinued",≤ 2 PVCs per minute
same,"number of PVCs, third trial","[1]; third trial, maintained for 54 days (as of Aug. 26, 2020)",less than 2 per minute
same,recurrence of PVCs after discontinuation,[1]; within about one week of discontinuing lithium treatment,PVCs recurred
same,PVCs reduced (expected),"[2]; extended release formulation, in combination with metoprolol 50 mg per day, cardiac event monitor fourteen days after starting treatment",at least 90%
same,number of PVCs after further reduction (expected),"[2]; extended release, with metoprolol 50 mg per day, cardiac event monitor one month after a 90% reduction is obtained",no more than 2 per minute

# Reference: patent US12156885B2, “Methods and compositions for treating heart conditions” (priority 2020, dated 2024)
